US20030232009A1
These are yes or no findings as the source states them, for the method shown. Some entries that bind do so weakly or less than the wild type. Each block holds one binder with its values, some of them ahead of it.

Assays:
[1] = molecular target: chimeric CD45RB (full length human CD45RB with the macaque RB exon) transiently expressed in CHO cells (human; macaque) (UniProt P08575); experiment: transiently transfected CHO cells
[2] = molecular target: T1, Human 46 mer peptide (RB exon of human CD45) (human); experiment: recombinant antibody on peptide
T1 sequence (peptide): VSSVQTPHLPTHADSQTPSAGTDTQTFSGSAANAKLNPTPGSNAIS

[3] = molecular target: T1, Human 46 mer peptide (RB exon of human CD45) (human); experiment: peptide binding
[4] = molecular target: Human CD45RB (format not stated) (human) (UniProt P08575); experiment: screening of harvest 8

binding [1]: binds
B1: AB-CD45RB-XG2-648 (antibody, human IgG2, V domains shown)
VH: QVQLVESGGGLVKPGGSLRLSCAASGFTFNVYYMNWIRQAPGKGLEWVSYISTSSSAIYYADSVKGRFTISRDNAKNSLYLQMNSLRAEDTAVYYCARRTGSTTVFDYWGQGTLVTVSS
VL: EIVLTQSPATLSVSPGERATLSCRASQSINNNLAWYQQKPGQAPRLLIYGASTRATGIPAKFSGSGSGTEFTLTISSLQSENFAVYYCQQYNKWPLTFGGGTKVEIK

binding [2]: binds
binding [3]: binds
binding [4]: binds
B2: AB-CD45RB-XG2-487 (antibody, human IgG2, V domains shown)
VH: QVQLVESGGGVVQPGRSLRVSCEASGFTFSNYGMHWVRQAPGKGLEWVAVIWYDGSKKFYADSVKGRFTISRDNSQNTLSLQMSSLRAEDTAVYYCARGGGDFDFWGQGTLVTVSS
VL: KIVMTQSPATLSVSPGERATLSCRASQSVSGNYLAWYQQRPGQAPRLLIYGASTRATGIPARFSGSGSGTEFTLTISSLQSEDFAVYYCQQYGKWPPLTFGGGTKVEIK
